Measured values: article PMC2944878
Read-outs that look alike come from different tables or passages of the source. No constants are given. Whether binding was seen depends on the method and setting. Some entries that bind do so weakly or less than the wild type. For some of these results: Sequences can lack the tags named with a protein.

The chains behind the UniProt entries cited, without tags or fusion partners.
UniProt Q39128: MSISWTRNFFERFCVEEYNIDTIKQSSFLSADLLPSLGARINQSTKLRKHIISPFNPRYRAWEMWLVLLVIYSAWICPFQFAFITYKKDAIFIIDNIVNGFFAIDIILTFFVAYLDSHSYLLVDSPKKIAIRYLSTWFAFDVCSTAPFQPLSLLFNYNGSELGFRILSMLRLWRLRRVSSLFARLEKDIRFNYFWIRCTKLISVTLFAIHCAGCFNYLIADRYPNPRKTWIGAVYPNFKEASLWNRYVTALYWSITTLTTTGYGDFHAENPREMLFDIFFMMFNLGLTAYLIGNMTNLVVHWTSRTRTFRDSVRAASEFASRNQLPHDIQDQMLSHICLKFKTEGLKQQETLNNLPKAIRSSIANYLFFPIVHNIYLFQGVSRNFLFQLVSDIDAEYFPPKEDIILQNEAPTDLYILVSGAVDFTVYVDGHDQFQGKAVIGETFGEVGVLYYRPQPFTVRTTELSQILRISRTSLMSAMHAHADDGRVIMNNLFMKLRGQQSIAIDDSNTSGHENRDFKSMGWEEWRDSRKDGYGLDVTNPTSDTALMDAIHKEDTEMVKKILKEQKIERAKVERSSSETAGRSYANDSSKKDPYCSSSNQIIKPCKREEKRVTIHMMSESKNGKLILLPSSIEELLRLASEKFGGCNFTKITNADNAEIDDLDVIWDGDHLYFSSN

T1: full-length HMT-1 as split-ubiquitin fusion (HMT-1-CubPLV bait; HMT-1-NubG prey) (C. elegans) (UniProt G5EFD4)
T1 sequence: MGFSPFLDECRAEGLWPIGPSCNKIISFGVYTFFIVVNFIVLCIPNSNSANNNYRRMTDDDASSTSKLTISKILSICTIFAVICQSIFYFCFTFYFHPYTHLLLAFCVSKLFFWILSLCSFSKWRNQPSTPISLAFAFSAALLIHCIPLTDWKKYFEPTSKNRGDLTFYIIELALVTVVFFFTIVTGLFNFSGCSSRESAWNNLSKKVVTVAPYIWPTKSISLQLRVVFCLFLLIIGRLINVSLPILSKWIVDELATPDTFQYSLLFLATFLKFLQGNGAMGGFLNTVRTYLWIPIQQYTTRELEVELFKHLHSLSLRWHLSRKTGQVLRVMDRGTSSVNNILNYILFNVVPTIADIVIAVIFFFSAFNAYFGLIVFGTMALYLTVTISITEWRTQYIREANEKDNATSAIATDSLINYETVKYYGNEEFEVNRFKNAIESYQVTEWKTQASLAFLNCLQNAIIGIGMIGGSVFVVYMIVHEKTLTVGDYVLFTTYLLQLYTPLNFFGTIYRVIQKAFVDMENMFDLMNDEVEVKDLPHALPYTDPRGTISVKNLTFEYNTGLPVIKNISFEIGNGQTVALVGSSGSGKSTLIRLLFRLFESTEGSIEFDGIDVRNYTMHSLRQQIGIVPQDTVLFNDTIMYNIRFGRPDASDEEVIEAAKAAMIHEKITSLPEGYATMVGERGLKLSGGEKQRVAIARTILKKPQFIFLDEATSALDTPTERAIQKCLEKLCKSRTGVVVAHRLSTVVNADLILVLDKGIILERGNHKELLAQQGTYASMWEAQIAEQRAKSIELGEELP


Tests used:
Test in all cases: two-hybrid; mating-based split-ubiquitin system (mbSUS) in diploid S. cerevisiae: CubPLV bait and NubG prey; growth on SC medium lacking adenine and histidine and β-galactosidase activity; bait repressed by 75 µM methionine as control
[1] = biological target: T1, full-length HMT-1 as split-ubiquitin fusion (HMT-1-CubPLV bait; HMT-1-NubG prey) (C. elegans)
[2] = biological target: potassium channel KAT1 from Arabidopsis thaliana, as split-ubiquitin fusion (KAT1-CubPLV bait; KAT1-NubG prey) (Arabidopsis thaliana) (UniProt Q39128)
[3] = biological target: T1, full-length HMT-1 as split-ubiquitin fusion (HMT-1-CubPLV bait; HMT-1-NubG prey) (C. elegans); remark: listed apart in the source
[4] = biological target: potassium channel KAT1 from Arabidopsis thaliana, as split-ubiquitin fusion (KAT1-CubPLV bait; KAT1-NubG prey) (Arabidopsis thaliana) (UniProt Q39128); remark: listed apart in the source

Molecule	binding [1]	binding [2]	binding [3]	binding [4]
potassium channel KAT1 from Arabidopsis thaliana, as split-ubiquitin fusion (KAT1-CubPLV bait; KAT1-NubG prey) (from UniProt Q39128 1-677)	no binding	binds	–	–
full-length HMT-1 as split-ubiquitin fusion (HMT-1-CubPLV bait; HMT-1-NubG prey) (protein, UniProt G5EFD4 1-801) MGFSPFLDECRAEGLWPIGPSCNKIISFGVYTFFIVVNFIVLCIPNSNSANNNYRRMTDDDASSTSKLTISKILSICTIFAVICQSIFYFCFTFYFHPYTHLLLAFCVSKLFFWILSLCSFSKWRNQPSTPISLAFAFSAALLIHCIPLTDWKKYFEPTSKNRGDLTFYIIELALVTVVFFFTIVTGLFNFSGCSSRESAWNNLSKKVVTVAPYIWPTKSISLQLRVVFCLFLLIIGRLINVSLPILSKWIVDELATPDTFQYSLLFLATFLKFLQGNGAMGGFLNTVRTYLWIPIQQYTTRELEVELFKHLHSLSLRWHLSRKTGQVLRVMDRGTSSVNNILNYILFNVVPTIADIVIAVIFFFSAFNAYFGLIVFGTMALYLTVTISITEWRTQYIREANEKDNATSAIATDSLINYETVKYYGNEEFEVNRFKNAIESYQVTEWKTQASLAFLNCLQNAIIGIGMIGGSVFVVYMIVHEKTLTVGDYVLFTTYLLQLYTPLNFFGTIYRVIQKAFVDMENMFDLMNDEVEVKDLPHALPYTDPRGTISVKNLTFEYNTGLPVIKNISFEIGNGQTVALVGSSGSGKSTLIRLLFRLFESTEGSIEFDGIDVRNYTMHSLRQQIGIVPQDTVLFNDTIMYNIRFGRPDASDEEVIEAAKAAMIHEKITSLPEGYATMVGERGLKLSGGEKQRVAIARTILKKPQFIFLDEATSALDTPTERAIQKCLEKLCKSRTGVVVAHRLSTVVNADLILVLDKGIILERGNHKELLAQQGTYASMWEAQIAEQRAKSIELGEELP	–	–	binds	no binding
